Test results: publication PMC6395391
These are yes or no findings as the source states them, for the method shown. In cells and extracts the contact can be indirect. Some results given as binding are weak or reduced against the parent protein; the word gives no strength. For some of these results: Sequences can lack the tags named with a protein. One block for each molecule: values may come before it.

Chains of the proteins cited; added tags and fusions are not shown.
UniProt P24385: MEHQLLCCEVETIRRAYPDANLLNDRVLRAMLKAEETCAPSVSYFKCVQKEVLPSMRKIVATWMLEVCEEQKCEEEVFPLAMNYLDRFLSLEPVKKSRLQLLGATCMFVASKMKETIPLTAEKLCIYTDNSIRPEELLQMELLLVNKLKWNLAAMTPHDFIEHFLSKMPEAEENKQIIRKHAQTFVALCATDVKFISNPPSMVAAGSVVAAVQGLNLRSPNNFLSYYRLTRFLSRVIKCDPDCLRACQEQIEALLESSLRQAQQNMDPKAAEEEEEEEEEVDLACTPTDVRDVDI

Key:
[1] = biological target: T1, HA-OGT (O-GlcNAc transferase) (UniProt O15294); assay: co-IP; HEK293T cells co-transfected with HA-OGT and Myc-cyclin D1 for 48 h (non-transfected cells as a further lane); lysis in RIPA without SDS; IP with anti-cyclin D1 or anti-OGT antibody and protein A/G beads; washes three times in RIPA and once in RIPA with 450 mM NaCl; blots for OGT, OGA and cyclin D1; non-relevant IgG as negative control
T1 sequence: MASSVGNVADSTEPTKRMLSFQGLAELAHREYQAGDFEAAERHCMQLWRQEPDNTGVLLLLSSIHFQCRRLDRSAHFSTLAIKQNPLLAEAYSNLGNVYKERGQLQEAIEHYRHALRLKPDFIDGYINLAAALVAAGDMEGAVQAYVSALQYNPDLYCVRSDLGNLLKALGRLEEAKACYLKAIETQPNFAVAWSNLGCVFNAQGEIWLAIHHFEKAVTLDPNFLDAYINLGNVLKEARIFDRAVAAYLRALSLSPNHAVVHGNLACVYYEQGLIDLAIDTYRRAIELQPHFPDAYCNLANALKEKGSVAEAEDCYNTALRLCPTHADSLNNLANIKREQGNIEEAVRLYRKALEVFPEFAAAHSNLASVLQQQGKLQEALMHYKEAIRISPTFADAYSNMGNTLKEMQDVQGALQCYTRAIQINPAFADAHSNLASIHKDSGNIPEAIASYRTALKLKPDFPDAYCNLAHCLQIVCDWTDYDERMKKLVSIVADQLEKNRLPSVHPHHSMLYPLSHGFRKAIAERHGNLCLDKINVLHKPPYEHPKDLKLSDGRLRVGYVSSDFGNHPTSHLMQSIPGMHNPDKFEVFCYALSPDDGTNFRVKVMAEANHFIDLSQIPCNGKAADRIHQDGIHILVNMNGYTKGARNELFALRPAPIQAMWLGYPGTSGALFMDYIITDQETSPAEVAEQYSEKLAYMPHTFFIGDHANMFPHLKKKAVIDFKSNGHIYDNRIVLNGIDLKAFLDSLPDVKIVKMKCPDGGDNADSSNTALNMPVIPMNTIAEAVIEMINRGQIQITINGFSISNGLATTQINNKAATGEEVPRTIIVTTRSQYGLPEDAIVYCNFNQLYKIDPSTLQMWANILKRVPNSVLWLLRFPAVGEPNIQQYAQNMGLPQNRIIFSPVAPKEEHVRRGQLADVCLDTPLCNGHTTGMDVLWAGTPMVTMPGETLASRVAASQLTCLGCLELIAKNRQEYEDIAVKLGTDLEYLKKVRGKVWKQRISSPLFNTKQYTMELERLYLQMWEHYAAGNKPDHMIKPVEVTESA

[2] = biological target: T2, O-GlcNAc transferase (OGT) (endogenous, HEK293T) (human (endogenous in HEK293T)) (UniProt O15294); assay: as above
T2 sequence: T1 sequence

Myc-cyclin D1 (human) = Myc-cyclin D1 (human) (UniProt P24385); assay: as above
[3] = biological target: cyclin D1 (endogenous, HCT116) (human (endogenous in HCT116)) (UniProt P24385); assay: co-IP; endogenous proteins of HCT116 cells, treated overnight with DMSO or ThG (1 uM); IP of endogenous cyclin D1 and OGT; blots with OGT and cycD1 antibodies
[4] = biological target: cyclin D1 (endogenous, MCF7) (human (endogenous in MCF7)) (UniProt P24385); assay: proximity ligation; in situ PLA (Duolink) on fixed MCF7 cells with antibodies against cyclin D1 (A12) and OGT (Ti-14); quiescent cells (0) and 6 h, 15 h, 21 h after serum stimulation; confocal microscopy

Molecule: Myc-cyclin D1 (from UniProt P24385 1-295)
binding [1]: binds

B2: HA-OGT (O-GlcNAc transferase) (enzyme, UniProt O15294 1-1046)
chain: T1 sequence
binding (Myc-cyclin D1 (human)): binds

B3: O-GlcNAc transferase (OGT) (endogenous, HCT116) (enzyme, UniProt O15294 1-1046)
chain: T1 sequence
binding [3]: binds

Now from value to molecule:

binding [2]: binds | binding (Myc-cyclin D1 (human)): no binding | binding [1]: binds
B1: O-GlcNAcase (OGA) (enzyme, UniProt O60502 1-916)
chain: MVQKESQATLEERESELSSNPAASAGASLEPPAAPAPGEDNPAGAGGAAVAGAAGGARRFLCGVVEGFYGRPWVMEQRKELFRRLQKWELNTYLYAPKDDYKHRMFWREMYSVEEAEQLMTLISAAREYEIEFIYAISPGLDITFSNPKEVSTLKRKLDQVSQFGCRSFALLFDDIDHNMCAADKEVFSSFAHAQVSITNEIYQYLGEPETFLFCPTEYCGTFCYPNVSQSPYLRTVGEKLLPGIEVLWTGPKVVSKEIPVESIEEVSKIIKRAPVIWDNIHANDYDQKRLFLGPYKGRSTELIPRLKGVLTNPNCEFEANYVAIHTLATWYKSNMNGVRKDVVMTDSEDSTVSIQIKLENEGSDEDIETDVLYSPQMALKLALTEWLQEFGVPHQYSSRQVAHSGAKASVVDGTPLVAAPSLNATTVVTTVYQEPIMSQGAALSGEPTTLTKEEEKKQPDEEPMDMVVEKQEETDHKNDNQILSEIVEAKMAEELKPMDTDKESIAESKSPEMSMQEDCISDIAPMQTDEQTNKEQFVPGPNEKPLYTAEPVTLEDLQLLADLFYLPYEHGPKGAQMLREFQWLRANSSVVSVNCKGKDSEKIEEWRSRAAKFEEMCGLVMGMFTRLSNCANRTILYDMYSYVWDIKSIMSMVKSFVQWLGCRSHSSAQFLIGDQEPWAFRGGLAGEFQRLLPIDGANDLFFQPPPLTPTSKVYTIRPYFPKDEASVYKICREMYDDGVGLPFQSQPDLIGDKLVGGLLSLSLDYCFVLEDEDGICGYALGTVDVTPFIKKCKISWIPFMQEKYTKPNGDKELSEAEKIMLSFHEEQEVLPETFLANFPSLIKMDIHKKVTDPSVAKSMMACLLSSLKANGSRGAFCEVRPDDKRILEFYSKLGCFEIAKMEGFPKDVVILGRSL

binding [4]: binds
B4: O-GlcNAc transferase (OGT) (endogenous, MCF7) (enzyme, UniProt O15294 1-1046)
chain: T1 sequence
